Measured values taken from PMC9267126.

Target: T1, AtOFP1 fused to the GAL4 DNA-binding domain (pGBKT7-AtOFP1) (Arabidopsis thaliana) (UniProt Q9LZW2)
T1 sequence: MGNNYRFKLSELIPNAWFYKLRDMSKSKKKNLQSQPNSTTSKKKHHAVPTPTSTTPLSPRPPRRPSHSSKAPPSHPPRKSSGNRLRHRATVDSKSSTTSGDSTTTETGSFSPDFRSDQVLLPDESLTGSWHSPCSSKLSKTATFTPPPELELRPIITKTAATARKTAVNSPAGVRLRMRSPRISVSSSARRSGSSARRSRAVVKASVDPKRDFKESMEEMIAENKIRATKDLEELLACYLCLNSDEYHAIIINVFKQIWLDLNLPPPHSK
Assay: two-hybrid; GAL4 system in yeast AH109; AtOFP1 in pGBKT7 (BD), AtKNAT3 or its fragments in pGADT7 (AD); growth on SD/-Leu/-Trp/-His/-Ade

HD domain of AtKNAT3 fused to the GAL4 activation domain (pGADT7) (Arabidopsis thaliana) (domain or fragment)
binding: binds

Results are given in words; binding and its absence hold for the method and conditions named. Binding calls can cover weak binding; strength is not graded here. Where a sequence is shown, tags or fusion partners need not be part of it.
